{"source": "PubChem BioAssay AID504764 – Drosophila RNAi Screening Center – 2011", "test": "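Genes whose knock-down alters Notch-dependent transcription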 (primary screen)", "cells": "Drosophila Kc167 cells", "reagents": "long dsRNA against Drosophila genes", "timing": "about 5 days (4 days dsRNA, then 24 h after transfection)", "conditions": "transfection of constitutively active membrane-tethered Notch lacking the extracellular domain, read 24 h later", "measurement": "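Light from a Notch-responsive E(spl)m3 luciferase reporter under active Notch, with control-promoter and no-Notch reporter wells to normalise; raw counts from paired wells a and b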", "reading the numbers": "induced reporter light, run 1, well a and induced reporter light, run 1, well b: higher = more light from the Notch target reporter with active Notch; control promoter light, run 1, well a and control promoter light, run 1, well b: higher = more light from the viral control promoter (cell number, transfection, viability); uninduced reporter light, run 1, well a: higher = more light from the Notch target reporter without active Notch", "rule for the call": "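Hit if the duplicate-averaged log2 ratio of induced to control-promoter light gives a plate-wise z beyond ±2, or induced to uninduced beyond ±1.8; weak-control or discordant-duplicate wells dropped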", "calls": "active = modifier hit (raised or lowered Notch signal); inactive = not a hit", "note": "In all, the deposit lists about 22,000 reagents; shown is a random part of those that have a named target and a result. Over the whole deposit, 403 (1.9%) got an active call. 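Unnormalised raw counts per well; ratio z-scores behind the hit calls and whether each hit raises or lowers signal are not deposited.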 The numbers tell different reagents against one gene apart. Names joined by + are all predicted targets of the reagent. Not given: the amount of reagent."}
{"gene knocked down": "CG15695", "dsRNA no.": 1, "induced reporter light, run 1, well a": 1.84e5, "induced reporter light, run 1, well b": 1.83e5, "control promoter light, run 1, well a": 2.21e5, "control promoter light, run 1, well b": 2.01e5, "uninduced reporter light, run 1, well a": 14925, "call": "inactive"}
{"gene knocked down": "Dhc98D", "dsRNA no.": 1, "induced reporter light, run 1, well a": 1.50e5, "induced reporter light, run 1, well b": 1.58e5, "control promoter light, run 1, well a": 1.71e5, "control promoter light, run 1, well b": 1.67e5, "uninduced reporter light, run 1, well a": 12200, "call": "inactive"}
{"gene knocked down": "tum", "dsRNA no.": 1, "induced reporter light, run 1, well a": 49555, "induced reporter light, run 1, well b": 45155, "control promoter light, run 1, well a": 1.01e5, "control promoter light, run 1, well b": 96585, "uninduced reporter light, run 1, well a": 4992, "call": "active"}
{"gene knocked down": "CG8757", "dsRNA no.": 1, "induced reporter light, run 1, well a": 1.75e5, "induced reporter light, run 1, well b": 1.78e5, "control promoter light, run 1, well a": 2.97e5, "control promoter light, run 1, well b": 1.87e5, "uninduced reporter light, run 1, well a": 8120, "call": "inactive"}
{"gene knocked down": "CG13995", "dsRNA no.": 1, "induced reporter light, run 1, well a": 1.44e5, "induced reporter light, run 1, well b": 1.10e5, "control promoter light, run 1, well a": 1.74e5, "control promoter light, run 1, well b": 1.89e5, "uninduced reporter light, run 1, well a": 10425, "call": "inactive"}
{"gene knocked down": "CG13995", "dsRNA no.": 2, "induced reporter light, run 1, well a": 61560, "induced reporter light, run 1, well b": 66255, "control promoter light, run 1, well a": 70815, "control promoter light, run 1, well b": 71210, "uninduced reporter light, run 1, well a": 4378, "call": "inactive"}
{"gene knocked down": "CG5348", "dsRNA no.": 1, "induced reporter light, run 1, well a": 1.33e5, "induced reporter light, run 1, well b": 96060, "control promoter light, run 1, well a": 1.02e5, "control promoter light, run 1, well b": 88520, "uninduced reporter light, run 1, well a": 8200, "call": "inactive"}
{"gene knocked down": "CG2921", "dsRNA no.": 1, "induced reporter light, run 1, well a": 1.78e5, "induced reporter light, run 1, well b": 1.68e5, "control promoter light, run 1, well a": 1.51e5, "control promoter light, run 1, well b": 1.54e5, "uninduced reporter light, run 1, well a": 14595, "call": "inactive"}
{"gene knocked down": "CG31952", "dsRNA no.": 1, "induced reporter light, run 1, well a": 1.41e5, "induced reporter light, run 1, well b": 1.18e5, "control promoter light, run 1, well a": 1.36e5, "control promoter light, run 1, well b": 1.04e5, "uninduced reporter light, run 1, well a": 7355, "call": "inactive"}
{"gene knocked down": "CG31952", "dsRNA no.": 2, "call": "inactive"}
{"gene knocked down": "CG7824", "dsRNA no.": 1, "induced reporter light, run 1, well a": 1.43e5, "induced reporter light, run 1, well b": 1.48e5, "control promoter light, run 1, well a": 1.88e5, "control promoter light, run 1, well b": 1.69e5, "uninduced reporter light, run 1, well a": 12950, "call": "inactive"}
{"gene knocked down": "sturkopf", "dsRNA no.": 1, "induced reporter light, run 1, well a": 92450, "induced reporter light, run 1, well b": 98905, "control promoter light, run 1, well a": 1.75e5, "control promoter light, run 1, well b": 1.86e5, "uninduced reporter light, run 1, well a": 9325, "call": "inactive"}
{"gene knocked down": "Nha1", "dsRNA no.": 1, "induced reporter light, run 1, well a": 1.64e5, "induced reporter light, run 1, well b": 1.80e5, "control promoter light, run 1, well a": 1.97e5, "control promoter light, run 1, well b": 2.06e5, "uninduced reporter light, run 1, well a": 15435, "call": "inactive"}
{"gene knocked down": "CG43339 + CG43338", "dsRNA no.": 1, "induced reporter light, run 1, well a": 2.44e5, "induced reporter light, run 1, well b": 2.36e5, "control promoter light, run 1, well a": 2.15e5, "control promoter light, run 1, well b": 1.98e5, "uninduced reporter light, run 1, well a": 17855, "call": "inactive"}
{"gene knocked down": "CG31789", "dsRNA no.": 1, "induced reporter light, run 1, well a": 81775, "induced reporter light, run 1, well b": 81450, "control promoter light, run 1, well a": 1.07e5, "control promoter light, run 1, well b": 84405, "uninduced reporter light, run 1, well a": 7045, "call": "inactive"}
{"gene knocked down": "CG14229", "dsRNA no.": 1, "induced reporter light, run 1, well a": 18635, "induced reporter light, run 1, well b": 18985, "control promoter light, run 1, well a": 18078, "control promoter light, run 1, well b": 21695, "uninduced reporter light, run 1, well a": 7265, "call": "inactive"}
{"gene knocked down": "CG40341 (retired record)", "dsRNA no.": 1, "induced reporter light, run 1, well a": 85850, "induced reporter light, run 1, well b": 64585, "control promoter light, run 1, well a": 73985, "control promoter light, run 1, well b": 77290, "uninduced reporter light, run 1, well a": 7328, "call": "inactive"}
{"gene knocked down": "CG40341 (retired record)", "dsRNA no.": 2, "induced reporter light, run 1, well a": 67035, "induced reporter light, run 1, well b": 76275, "control promoter light, run 1, well a": 78590, "control promoter light, run 1, well b": 81425, "uninduced reporter light, run 1, well a": 6460, "call": "inactive"}

Reagents above marked active, once more:
{"gene knocked down": "tum", "dsRNA no.": 1, "induced reporter light, run 1, well a": 49555, "induced reporter light, run 1, well b": 45155, "control promoter light, run 1, well a": 1.01e5, "control promoter light, run 1, well b": 96585, "uninduced reporter light, run 1, well a": 4992, "call": "active"}
